# Assay results

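293T-iDUX4 cells carrying a ZSCAN4-driven Gaussia luciferase and a tet-on Italica luciferase control; the gap between the two luminescence signals is read after 24 h.
The test concentration is not given here.
Percent difference between the Gaussia and Italica channels; more negative values mean more selective suppression of the DUX4 reporter, and higher values mean less activity.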

Values are in %.
How 0% and 100% were set is not given here.
Common to all entries: measured here: selective DUX4 reporter inhibition.
Part of the compounds only, not a random draw; the main read-out is not listed here.

With O=C(Nc1cc(F)ccc1F)N1C[C@@H]2[C@H](c3ccccc31)[C@H](CO)N2CC1CCCC1 the assay gave Gaussia minus Italica difference 0.9994%. CN(C)C(=O)c1cccc(-c2ccc3c(c2)[C@H]2[C@H](CCN2C(=O)c2ccc4c(c2)OCO4)[C@@H](CO)N3)c1 gave Gaussia minus Italica difference 3.829%. For COc1ccc(-c2ccc3c(c2)[C@H]2[C@H](CCN2S(=O)(=O)c2ccc(OC)cc2)[C@@H](CO)N3C)cc1 the result was Gaussia minus Italica difference 12.12%. COc1cccc(NC(=O)N[C@@H]2C=C[C@@H](CC(=O)Nc3ccc(-c4ccccc4)cc3)O[C@H]2CO)c1 gave Gaussia minus Italica difference -4.407%.

COc1ccc(C#Cc2ccc([C@H]3[C@H](CO)N4CCCCN(C(=O)Nc5ccccc5F)C[C@@H]34)cc2)cc1 gave Gaussia minus Italica difference -3.723%. Result for COc1ccc2c3c(n(C)c2c1)[C@@H](CO)N(CC1CC1)CC31CCN(S(=O)(=O)c2cccs2)CC1 was Gaussia minus Italica difference -9.01%. C[C@H](CO)N1C[C@H](C)[C@H](CN(C)C(=O)[C@@H]2CCCN2C)OCc2ccccc2-c2c(n(C)c3ccccc23)C1=O read Gaussia minus Italica difference -12.85%. For O=C(C[C@@H]1CC[C@@H]2[C@H](COC[C@@H](O)CN2Cc2ccc(C(F)(F)F)cc2)O1)N1CCc2ccccc2C1 the result was Gaussia minus Italica difference -6.982%.

For O=C(c1ccc(F)cc1)N1CC(=O)N2[C@@H](CO)[C@H](c3ccc(C#CCC4CCCC4)cc3)[C@@H]2C1 the result was Gaussia minus Italica difference -8.716%. O=C(C[C@@H]1C[C@@H]2c3cc(NC(=O)Nc4ccccc4F)ccc3O[C@@H]2[C@@H](CO)O1)NCCc1ccccc1 read Gaussia minus Italica difference -17.07%. With C[C@H](CO)N1C[C@H](C)[C@@H](CN(C)C(=O)Nc2ccc3c(c2)OCO3)OCc2cn(nn2)CCCC1=O the assay gave Gaussia minus Italica difference -19.5%. Result for O=C(C[C@@H]1C[C@@H]2c3cc(NC(=O)Nc4ccccc4F)ccc3O[C@@H]2[C@@H](CO)O1)NCc1ccc(Oc2ccccc2)cc1 was Gaussia minus Italica difference -20.57%.

With O=C(C[C@@H]1CC[C@H]2[C@@H](COC[C@H](O)CN2Cc2ccc(Cl)cc2)O1)NCc1cccc(F)c1 the assay gave Gaussia minus Italica difference -0.9546%. Result for C[C@@H]1CN([C@H](C)CO)C(=O)c2c(c3ccccc3n2C)-c2ccccc2CO[C@@H]1CN(C)S(=O)(=O)c1ccc([N+](=O)[O-])cc1 was Gaussia minus Italica difference 6.196%. With O=C(C[C@H]1CC[C@H]2[C@@H](COC[C@H](O)CN2C(=O)Nc2ccc(Cl)cc2)O1)NCC1CCCCC1 the assay gave Gaussia minus Italica difference -8.899%. C[C@@H]1CN([C@@H](C)CO)C(=O)c2c(c3ccccc3n2C)-c2ccccc2CO[C@@H]1CN(C)CC1CCCCC1 read Gaussia minus Italica difference -16.86%.

COc1ccc2c3c([nH]c2c1)[C@@H](CO)N(Cc1ccccc1Cl)CC31CN(C(=O)C2CC2)C1 gave Gaussia minus Italica difference -24.22%. N#C[C@@H]1[C@@H](c2ccccc2-c2ccc(F)cc2)[C@@H](CO)N1C(=O)Cc1ccccc1 read Gaussia minus Italica difference -8.47%. With O=C(NC1CCCCC1)N1CC(=O)N2[C@H](CO)[C@@H](c3ccc(-c4cccc(F)c4)cc3)[C@@H]2C1 the assay gave Gaussia minus Italica difference -3.133%. CO[C@H]1CN(C)C(=O)c2ccc(NC(=O)Nc3cccc(Cl)c3)cc2OC[C@H](C)NC[C@H]1C read Gaussia minus Italica difference 3.691%.

N#Cc1cccc(-c2ccc3c(c2)[C@H]2[C@H](CCN2S(=O)(=O)c2ccccc2F)[C@@H](CO)N3)c1 gave Gaussia minus Italica difference 4.824%. For C[C@H]1CN([C@@H](C)CO)C(=O)c2c(c3ccccc3n2C)-c2ccccc2CO[C@H]1CN(C)CC1CCCCC1 the result was Gaussia minus Italica difference -2.394%.

Repeated from the top, 2 entries:

{"smiles": "O=C(Nc1cc(F)ccc1F)N1C[C@@H]2[C@H](c3ccccc31)[C@H](CO)N2CC1CCCC1", "Gaussia minus Italica difference (%)": "0.9994"}
{"smiles": "CN(C)C(=O)c1cccc(-c2ccc3c(c2)[C@H]2[C@H](CCN2C(=O)c2ccc4c(c2)OCO4)[C@@H](CO)N3)c1", "Gaussia minus Italica difference (%)": "3.829"}

From PubChem BioAssay record AID1224904 (Broad Institute, 2016).